Measurements reported in PubChem BioAssay AID504808 (Drosophila RNAi Screening Center, 2011)
In all, the deposit lists about 21,000 reagents; this is an unselected part of those with a known target gene and a result. In the full data, 18 (0.084%) were called active. 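Raw counts without plate normalisation, one of two replicates; the ratio scores behind the calls were not deposited.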 A plus sign joins genes that one reagent is predicted to hit. Not given: the amount of reagent, the time to read-out.

Test: 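Fly genes required to hold E2F transcription in check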 (primary screen)
Cell system: Drosophila S2 cells
Knock-down reagent: long dsRNA against Drosophila genes
Measurement: 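Dual luciferase plate measurements; E2F-specific signal taken as firefly over Renilla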
Direction: E2F firefly: higher = more E2F reporter activity; Renilla normaliser: higher = more normaliser reporter signal
Hit rule: 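Called active if the normalised E2F reporter went up by over 50%; the cutoff is arbitrary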

Gene | dsRNA | E2F firefly, rep 1 | Renilla normaliser, rep 1 | Call
Gr39a (Gustatory receptor 39a) | DRSC01841 | 1.23e5 | 4785 | inactive
Gr39a (Gustatory receptor 39a) | DRSC01842 | 1.13e5 | 5843 | inactive
CG43693 | DRSC09086 | 1.43e5 | 4131 | inactive
CG43693 | DRSC10625 | 74428 | 3463 | inactive
Cap-D2 (CAP-D2 condensin subunit) | DRSC15401 | 1753 | 892 | inactive
dati (datilografo) | DRSC17128 | 1791 | 960 | inactive
dati (datilografo) | DRSC17153 | 1.24e5 | 6087 | inactive
CG31516 | DRSC11994 | 85383 | 4366 | inactive
Pdf (Pigment-dispersing factor) | DRSC16786 | 51680 | 3003 | inactive
Plod (procollagen lysyl hydroxylase) | DRSC10601 | 79281 | 3691 | inactive
Plod (procollagen lysyl hydroxylase) | DRSC10602 | 1.10e5 | 6075 | inactive
Cdc16 (Cell division cycle 16) | DRSC16920 | 99035 | 6144 | inactive
cv (crossveinless) | DRSC17833 | 45597 | 3924 | inactive
Tsp42Eg (Tetraspanin 42Eg) | DRSC06112 | 90917 | 4133 | inactive
CG4768 | DRSC19917 | 1.87e5 | 6307 | inactive
CG7094 | DRSC03005 | 1.11e5 | 4512 | inactive
CG8149 | DRSC16391 | 1.52e5 | 6914 | inactive
CG9518 | DRSC20194 | 1.43e5 | 7209 | inactive
CCT3 (Chaperonin containing TCP1 subunit 3) | DRSC16602 | 66365 | 3289 | inactive
ATPsynE (ATP synthase, subunit E) | DRSC15476 | 76836 | 3605 | inactive
Cyp304a1 (Cytochrome P450 304a1) | DRSC16623 | 1.08e5 | 6667 | inactive
CheA87a (Chemosensory protein A 87a) | DRSC14839 | 1.11e5 | 5088 | inactive
AgmNAT (Agmatine N-acetyltransferase) | DRSC18072 | 43864 | 3353 | inactive
Prosalpha3T (Proteasome alpha3 subunit, Testis-specific) | DRSC15226 | 1.11e5 | 6972 | inactive
ush (u-shaped) | DRSC00843 | 71088 | 3926 | inactive
Nha1 (Na[+]/H[+] hydrogen antiporter 1) | DRSC02109 | 95869 | 3748 | inactive
Der-1 (Derlin-1) | DRSC00301 | 88648 | 3667 | inactive
CG6765 | DRSC10706 | 1.06e5 | 3976 | inactive
Upf3 | DRSC04092 | 82049 | 3516 | inactive
ssp6 (short spindle 6) | DRSC08791 | 1.21e5 | 3783 | inactive
ssp6 (short spindle 6) | DRSC10677 | 86388 | 3497 | inactive
SCCRO4 (Squamous cell carcinoma-related oncogene 4) | DRSC10671 | 1.34e5 | 6210 | inactive
CG12865 (retired record) | DRSC06205 | 1.07e5 | 4613 | inactive
CG7530 | DRSC16255 | 64519 | 2850 | inactive
Irk2 (Inwardly rectifying potassium channel 2) | DRSC15569 | 85352 | 3914 | inactive
CG1998 | DRSC19829 | 7284 | 411 | inactive
Cad89D (Cadherin 89D) | DRSC15022 | 94729 | 4878 | inactive

The list goes on; the last 12 above are carried over.
Gene | dsRNA | E2F firefly, rep 1 | Renilla normaliser, rep 1 | Call
Nha1 (Na[+]/H[+] hydrogen antiporter 1) | DRSC02109 | 95869 | 3748 | inactive
Der-1 (Derlin-1) | DRSC00301 | 88648 | 3667 | inactive
CG6765 | DRSC10706 | 1.06e5 | 3976 | inactive
Upf3 | DRSC04092 | 82049 | 3516 | inactive
ssp6 (short spindle 6) | DRSC08791 | 1.21e5 | 3783 | inactive
ssp6 (short spindle 6) | DRSC10677 | 86388 | 3497 | inactive
SCCRO4 (Squamous cell carcinoma-related oncogene 4) | DRSC10671 | 1.34e5 | 6210 | inactive
CG12865 (retired record) | DRSC06205 | 1.07e5 | 4613 | inactive
CG7530 | DRSC16255 | 64519 | 2850 | inactive
Irk2 (Inwardly rectifying potassium channel 2) | DRSC15569 | 85352 | 3914 | inactive
CG1998 | DRSC19829 | 7284 | 411 | inactive
Cad89D (Cadherin 89D) | DRSC15022 | 94729 | 4878 | inactive
myo (myoglianin) | DRSC17174 | 1819 | 796 | inactive
CG6276 | DRSC16007 | 70948 | 3282 | inactive
CG13097 | DRSC02199 | 81076 | 3169 | inactive
CG10750 | DRSC02105 | 81452 | 3417 | inactive
CG9173 | DRSC08635 | 1.05e5 | 3963 | inactive
CG3868 | DRSC10380 | 81415 | 3694 | inactive
Cyp9h1 (Cytochrome P450 9h1) | DRSC07391 | 97856 | 3723 | inactive
ewg (erect wing) | DRSC18773 | 1.18e5 | 5956 | inactive
Mic26-27 (MICOS subunit 26/27) | DRSC15913 | 68553 | 3405 | inactive
CG3829 | DRSC04423 | 87421 | 3741 | inactive
Gcn2 | DRSC16678 | 2002 | 976 | inactive
sls (sallimus) | DRSC08528 | 84099 | 4296 | inactive
sls (sallimus) | DRSC08540 | 1.05e5 | 4886 | inactive
sls (sallimus) | DRSC08670 | 99324 | 4289 | inactive
CG14668 | DRSC12254 | 1.42e5 | 6062 | inactive
CG15550 | DRSC15088 | 1.21e5 | 6651 | inactive
Drep3 (DNA fragmentation factor-related protein 3) | DRSC06312 | 1.07e5 | 4082 | inactive
Drep3 (DNA fragmentation factor-related protein 3) | DRSC07529 | 49705 | 4319 | inactive
Mekk1 | DRSC16302 | 81671 | 3446 | inactive
Mekk1 | DRSC16303 | 1.51e5 | 7211 | inactive
elfless | DRSC02451 | 1.07e5 | 4279 | inactive
CG34129 | DRSC15960 | 98086 | 5310 | inactive
bab2 (bric a brac 2) | DRSC08150 | 94355 | 4182 | inactive
bab2 (bric a brac 2) | DRSC08380 | 1.04e5 | 3739 | inactive
trc (tricornered) | DRSC11406 | 1.22e5 | 5317 | inactive
E(spl)m3-HLH (Enhancer of split m3, helix-loop-helix) | DRSC16694 | 71017 | 4705 | inactive
CG3701 (retired record) | DRSC04408 | 97478 | 4496 | inactive
CG3701 (retired record) | DRSC04409 | 1.13e5 | 4454 | inactive
Est-Q (Esterase Q) | DRSC11835 | 75663 | 3523 | inactive
Su(Tpl) (Suppressor of Triplolethal) | DRSC10954 | 60994 | 3718 | inactive
y (yellow) | DRSC18853 | 51247 | 4536 | inactive
CG14515 | DRSC14867 | 1.17e5 | 6342 | inactive
Ubc6 (Ubiquitin conjugating enzyme 6) | DRSC12370 | 70451 | 3384 | inactive
Eig71Ek | DRSC11158 | 1.71e5 | 7747 | inactive
rad (retired record) | DRSC19687 | 1.46e5 | 6297 | inactive
CG42233 | DRSC14328 | 1.28e5 | 5471 | inactive
CG42233 | DRSC15416 | 68518 | 4473 | inactive
CG7551 | DRSC10876 | 1.11e5 | 6194 | inactive
CG18744 | DRSC15381 | 1.40e5 | 6807 | inactive
UQCR-14L (Ubiquinol-cytochrome c reductase 14 kDa subunit-like) | DRSC15288 | 1.20e5 | 5972 | inactive
Ugt305A1 (UDP-glycosyltransferase family 305 member A1) | DRSC08541 | 92912 | 3724 | inactive
PH4alphaNE1 (prolyl-4-hydroxylase-alpha NE1) | DRSC16546 | 1885 | 784 | inactive
CG8388 | DRSC07157 | 1.50e5 | 4781 | inactive
CG9287 | DRSC03186 | 1.53e5 | 4889 | inactive
CG8243 | DRSC07122 | 1.52e5 | 4606 | inactive
Nlp (Nucleoplasmin) | DRSC16759 | 1439 | 980 | inactive
CG6403 | DRSC16033 | 1.21e5 | 5716 | inactive
TrissinR (Trissin receptor) | DRSC02334 | 1.39e5 | 4639 | inactive
TrissinR (Trissin receptor) | DRSC02335 | 1.33e5 | 4443 | inactive
TrissinR (Trissin receptor) | DRSC02336 | 1.73e5 | 5718 | inactive
Sf3a2 (Splicing factor 3a subunit 2) | DRSC09801 | 75886 | 3803 | inactive
Ugt49C1 (UDP-glycosyltransferase family 49 member C1) | DRSC04252 | 1.07e5 | 4284 | inactive
WDR79 (WD repeat domain 79) | DRSC03159 | 97645 | 3619 | inactive
Nepl20 (Neprilysin-like 20) | DRSC14878 | 1.13e5 | 5589 | inactive
Jhbp4 (Juvenile hormone binding protein 4) | DRSC14222 | 1.18e5 | 6159 | inactive
CG15625 | DRSC00460 | 1.35e5 | 5204 | inactive
Jon44E (Jonah 44E) | DRSC07216 | 1.37e5 | 4653 | inactive
PGRP-SC2 (Peptidoglycan recognition protein SC2) | DRSC06481 | 1.44e5 | 4614 | inactive
Pbp95 (PSEA-binding protein 95kD) | DRSC15448 | 1.39e5 | 7036 | inactive
Mulk (Multi-substrate lipid kinase) | DRSC02658 | 89094 | 3446 | inactive
Ada2a (transcriptional Adaptor 2a) | DRSC16206 | 1.25e5 | 6383 | inactive
MESR3 (Misexpression suppressor of ras 3) | DRSC02463 | 86343 | 4017 | inactive
CG6429 | DRSC06986 | 1.30e5 | 4465 | inactive
Nup93-1 (Nucleoporin 93kD-1) | DRSC19344 | 6791 | 676 | inactive
Sdb (SAXO downstream of blistered) | DRSC06272 | 88723 | 3809 | inactive
Sdb (SAXO downstream of blistered) | DRSC06273 | 95449 | 4319 | inactive
Sdb (SAXO downstream of blistered) | DRSC07155 | 2945 | 193 | inactive
PGRP-LD + Cralbp + Pmi | DRSC09743 | 95261 | 4043 | inactive
roq (roquin) | DRSC10227 | 71040 | 3587 | inactive
Klp68D (Kinesin-like protein at 68D) | DRSC11206 | 80906 | 3892 | inactive
